The values that follow come from US20110104240A1, “Nitric Oxide Device and Method for Wound Healing, Treatment of Dermatological Disorders and Microbial Infections” (Micropharma Limited, priority 2008, published 2011).

The subject of this data set is porcine liver esterase. The experiment in a line: Enzymatic generation of gNO with porcine liver esterase, sodium nitrite and ester substrates. In kind it is biochemical. The note with it: sodium nitrite.

For the compound `CC(=O)OCC(COC(C)=O)OC(C)=O` [triacetin, glyceryl triacetate], the gNO production (0.5% triacetin) is ≤ 200 ppmV and the gNO production entry (1% triacetin in the assay) is reported as “up to 250 ppmV”.
